Data as given in PubChem BioAssay AID1259254 (NCATS, 2017)
Here is an unselected part of about 59,000 reagents. Of all reagents, about 1,550 (2.6%) got an active call. 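G2 share is only a proxy for re-replication; each gene was hit by three separate siRNAs, and active genes were retested.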 Entries without a mark were called inactive. Reagents against one gene are numbered here. Not all columns of the deposit are shown. The record does not give: the amount of reagent.

- Aim: 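Gene knock-downs that lead to re-replication, shown by excess G2 DNA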 (primary screen)
- Cells: human HCT116 colorectal cancer cells
- Knock-down reagent: single siRNA against human genes
- Time to read-out: 3 days
- Detection: 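Imaged Hoechst DNA stain sorts each cell into a cycle phase by DNA amount; per plate, G2 fraction set to 0% for non-targeting and 100% for GMNN siRNA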
- Reading the numbers: G2 robust z-score and G2 cells, % of GMNN control: higher = more G2 cells, more excess DNA replication
- Active means: 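An siRNA counts as active if its G2 robust z-score lies at least 5 MADs above the screen median; here such calls match roughly 38% of GMNN control or more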

For CAMKV (CaM kinase like vesicle associated) #1, how do the results read?
G2 robust z-score: 0.813; G2 cells, % of GMNN control: 8.69

For CAMKV (CaM kinase like vesicle associated) #2, what does the deposit list?
G2 robust z-score: -0.0164; G2 cells, % of GMNN control: 2.85

What did the screen give for CAMKV (CaM kinase like vesicle associated) #3?
G2 robust z-score: 1.58; G2 cells, % of GMNN control: 14.1

What did the screen give for LOC653513 (phosphodiesterase 4D interacting protein-like) #1?
G2 robust z-score: 0.593; G2 cells, % of GMNN control: 7.14

For LOC653513 (phosphodiesterase 4D interacting protein-like) #2, how do the results read?
G2 robust z-score: 0.38; G2 cells, % of GMNN control: 5.64

What did the screen give for LOC653513 (phosphodiesterase 4D interacting protein-like) #3?
G2 robust z-score: 0.208; G2 cells, % of GMNN control: 4.43

What did the screen give for AASDH (aminoadipate-semialdehyde dehydrogenase) #1?
G2 robust z-score: -1.1; G2 cells, % of GMNN control: -4.74

How did the screen score AASDH (aminoadipate-semialdehyde dehydrogenase) #2?
G2 robust z-score: 0.117; G2 cells, % of GMNN control: 3.79

How did the screen score AASDH (aminoadipate-semialdehyde dehydrogenase) #3?
G2 robust z-score: -0.517; G2 cells, % of GMNN control: -0.667

What is on record for CARMIL2 (capping protein regulator and myosin 1 linker 2) #1?
G2 robust z-score: -0.56; G2 cells, % of GMNN control: -0.974

How did the screen score CARMIL2 (capping protein regulator and myosin 1 linker 2) #2?
G2 robust z-score: -0.313; G2 cells, % of GMNN control: 0.763

With CARMIL2 (capping protein regulator and myosin 1 linker 2) #3, what was measured?
G2 robust z-score: 1.47; G2 cells, % of GMNN control: 13.3

What did the screen give for ACACA (acetyl-CoA carboxylase alpha) #1?
G2 robust z-score: 0.109; G2 cells, % of GMNN control: 3.74

For ACACA (acetyl-CoA carboxylase alpha) #2, what was measured?
G2 robust z-score: -1.19; G2 cells, % of GMNN control: -5.37

With ACACA (acetyl-CoA carboxylase alpha) #3, what does the deposit list?
G2 robust z-score: -0.68; G2 cells, % of GMNN control: -1.82

With ZNF644 (zinc finger protein 644) #1, how do the results read?
G2 robust z-score: 5.61 (active); G2 cells, % of GMNN control: 42.4

How did the screen score ZNF644 (zinc finger protein 644) #2?
G2 robust z-score: -0.202; G2 cells, % of GMNN control: 1.55

For ZNF644 (zinc finger protein 644) #3, what does the deposit list?
G2 robust z-score: -0.491; G2 cells, % of GMNN control: -0.486

Which result is listed for CLCA4 (chloride channel accessory 4) #1?
G2 robust z-score: 0.173; G2 cells, % of GMNN control: 4.18

For CLCA4 (chloride channel accessory 4) #2, how do the results read?
G2 robust z-score: 1.09; G2 cells, % of GMNN control: 10.6

What did the screen give for CLCA4 (chloride channel accessory 4) #3?
G2 robust z-score: -0.686; G2 cells, % of GMNN control: -1.86

For PCNP (PEST proteolytic signal containing nuclear protein) #1, what does the deposit list?
G2 robust z-score: -1; G2 cells, % of GMNN control: -4.1

With PCNP (PEST proteolytic signal containing nuclear protein) #2, what was measured?
G2 robust z-score: -0.572; G2 cells, % of GMNN control: -1.06

Which result is listed for PCNP (PEST proteolytic signal containing nuclear protein) #3?
G2 robust z-score: 0.908; G2 cells, % of GMNN control: 9.36

Active calls, among the entries above:
ZNF644 (zinc finger protein 644) #1 — G2 robust z-score = 5.61 (active); G2 cells, % of GMNN control = 42.4
